Reference: PubChem BioAssay AID2685 (National Center for Advancing Translational Sciences (NCATS), 2010)
Some of the results follow. Further columns of the screen follow, without active or inactive calls. Most of these compounds were active or inconclusive in the main read-out, so they are no random draw. Potencies come from curve fits of mixed quality, noted in brackets.

Assay: qHTS Assay for Lipid Storage Modulators in Drosophila S3 Cells;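 on cell number change: cells counted by Cell Tracker Red CMTPX staining in the red channel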
Conditions: BODIPY lipid droplet fluorescence, 18-24 h; for cell number change: measured here: cell count max response, cells fed with added oleic acid
Outline: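 Laser-scanning cytometry quantifies lipid droplet accumulation (500–530 nm total intensity; droplet/cell object ratio) in oleic acid-fed (400 uM added) Drosophila S3 cells treated with a concentration series. 20 uM Triacsin C defined 100% inhibition.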

[1] = measured here: cell number channel AC50, cells fed with added oleic acid
[2] = measured here: lipid fluorescence (Fed channel) AC50, cells fed with added oleic acid

SMILES | cell number change [%] | AC50 [1] | AC50 [2]
Cc1cc(C)c(C(=O)Nn2c(C)nc3ccccc3c2=O)cc1C | 11.7 |  | 
Cc1ccc(S(=O)(=O)CC(=O)c2cc(C)c(O)c(C)c2)cc1 | 81 | 29.1 µM [rising, single point] | 29.1 µM [rising, single point]
Cc1ccc(S(=O)(=O)c2c(C)cc(C)nc2N2CCCC2)cc1 | 2.6 |  | 
Cc1cc(C(=O)NCC(=O)OCC(=O)NCCc2ccccc2)ccc1[N+](=O)[O-] | -27.9 |  | 
COc1ccc(C(F)(F)F)cc1N/C=C\c1nnnn1-c1ccccc1 | 27.3 | 0.731 µM [rising, partial curve, poor fit] | 23.1 µM [falling, single point]
CCOC(=O)c1c(NC(=O)Cn2cc([N+](=O)[O-])cn2)sc2c1CCC2 | 4.6 | 0.411 µM [rising, partial curve, poor fit] | 
O=S(=O)(Nc1ccc(N2CCOCC2)nn1)c1ccccc1 | 2.97 |  | 0.116 µM [falling, full curve]
COc1ccc(C2CC3(CC(C)(C)NC(=O)N3)Oc3cc(O)ccc32)cc1 (centres undefined) | -8.94 |  | 0.0184 µM [falling, full curve, poor fit]
O=C(O)CSC1c2ccccc2C(=O)N1c1ccccc1 (centres undefined) | -46.5 | 32.6 µM [falling, single point] | 23.1 µM [falling, single point]
CN(CCc1ccccc1)C(=O)c1cc(COc2cccc(C(F)(F)F)c2)on1 | 11.2 |  | 20.6 µM [falling, single point]
COc1ccc(CCC(C)NCc2ccccc2OC)cc1 (centres undefined) | -5.8 |  | 
O=C(NCCS(=O)(=O)c1ccc(Br)cc1)c1ccc(Cl)cc1Cl | 25.3 |  | 11.2 µM [rising, partial curve, poor fit]
Cc1oc(-c2ccccc2)cc1C(=O)Nc1cccc(/C=C\C(=O)O)c1 | 16.9 | 0.092 µM [rising, full curve, poor fit] | 0.13 µM [rising, full curve, poor fit]
CC1CC(C)CN(CCCNC(=O)CCC(=O)N2CCOc3ccccc32)C1 (centres undefined) |  |  | 0.259 µM [rising, full curve]
CC(C)CCNC(=O)C(Cc1ccccc1)NS(=O)(=O)c1ccc2c(c1)c(=O)n(C)c(=O)n2C (centres undefined) | 5.94 |  | 
CC1=CC(=O)C(C(C)=Nc2ccccc2Cl)C(=O)O1 (centres undefined) | 5.27 |  | 0.058 µM [falling, full curve, poor fit]
CNC(=S)N(CCc1c(C)[nH]c2ccc(C)cc12)Cc1cc(OC)c(OC)c(OC)c1 | 19.5 |  | 0.82 µM [rising, partial curve]
COc1cccc(-n2c(Cc3cc(=O)[nH]c(=O)[nH]3)nnc2SCC(=O)NC2CCCC2)c1 | 2.28 |  | 
COc1ccccc1N1CCN(C(CNS(=O)(=O)c2ccccc2)c2cccnc2)CC1 (centres undefined) |  | 5.8 µM [rising, single point] | 2.31 µM [rising, partial curve]
CCCN1c2cccc3cccc(c23)S1(=O)=O | 1.56 |  | 6.51 µM [falling, single point]

SMILES | cell number change [%] | AC50 [1] | AC50 [2]
COC(=O)c1ccccc1NC(=O)c1cc(C)no1 | -21.6 |  | 
CCOC(=O)N1CCC(NC(=O)Cn2cc3c(n2)CCCCC3)CC1 | -31.4 | 32.6 µM [falling, partial curve, poor fit] | 20.6 µM [rising, single point]
CCOCCCNc1c(CC)c(C)c(C#N)c2nc3ccccc3n12 | -15.2 |  | 29.1 µM [falling, single point]
Cc1c(-c2c(C#N)c(N)nc3c2CCCCCC3)cnn1C | 57.4 | 16.4 µM [rising, partial curve, poor fit] | 
O=C(O)c1ccc(S(=O)(=O)NC2CCCc3ccccc32)cc1 (centres undefined) | -7.58 |  | 
O=C(N/N=C/c1ccncc1)c1cccs1 | 18.7 |  | 5.8 µM [rising, full curve, poor fit]
CC(C)n1cnnc1SCC(=O)NCC(=O)Nc1ccc(F)cc1 | -7.39 | 6.51 µM [falling, single point] | 6.51 µM [falling, single point]
COc1ccc(NC(=O)c2cc([N+](=O)[O-])ccc2O)cc1 | -59.8 | 16.4 µM [falling, partial curve, poor fit] | 6.51 µM [falling, partial curve]
COc1ccc(/C=C2\SC(=O)N(CCNC(=O)Cc3coc4cc(C)ccc34)C2=O)cc1OC | 20.4 |  | 3.26 µM [rising, partial curve, poor fit]
CN1CCc2c(C#N)c(N3CCCCC3)nc(NCc3ccccc3)c2C1 | -43.5 | 29.1 µM [falling, single point] | 16.4 µM [falling, partial curve]
Fc1ccc(C2C3=C(Nc4ncnn42)c2ccccc2OC3c2ccncc2)cc1 (centres undefined) | 36.9 | 13 µM [rising, single point] | 0.82 µM [falling, partial curve]
Fc1cc(F)c2nc(Nc3nc4c(F)cccc4s3)sc2c1 | -1.59 |  | 
COc1ccccc1Nc1nnc(SC(C)C(=O)NC2CC2)s1 (centres undefined) | -12.2 |  | 
CC(=O)OCCNc1cc(N2CCN(C)CC2)c2noc3c2c1C(=O)c1ccccc1-3 | -17.2 |  | 13 µM [falling, single point]
CC1(C)NC(=O)N(CC(=O)O)C1=O | -3.83 |  | 4.11 µM [rising, single point]
C[C@H](NC(=O)c1ccccc1Cl)C(=O)OCC(=O)NNC(=O)c1cccs1 | 19 |  | 
CCOc1cc(/C=N/NC(=O)c2cccnc2)ccc1OCC(=O)N(C)C | 49.2 |  | 29.1 µM [rising, partial curve, poor fit]
COc1ccccc1NC(=O)CCCc1nc(-c2ccc(OC)c(OC)c2)no1 | 26.6 |  | 
CSc1ccc(S(=O)(=O)NCC(=O)OCC(=O)NCc2ccco2)cc1[N+](=O)[O-] | 10 |  | 
CCOC(=O)c1ccc(-c2ccc(/C=N/NC(=O)CN(c3ccccc3Br)S(C)(=O)=O)o2)cc1 |  |  | 18.4 µM [falling, partial curve]

Reformatted: results already given.
SMILES	cell number change [%]	AC50 [1]	AC50 [2]
Cc1cc(C(=O)NCC(=O)OCC(=O)NCCc2ccccc2)ccc1[N+](=O)[O-]	-27.9		
COc1ccc(C2CC3(CC(C)(C)NC(=O)N3)Oc3cc(O)ccc32)cc1 (centres undefined)	-8.94		0.0184 µM [falling, full curve, poor fit]
